Percent effect of library compounds

Chains of the proteins cited; added tags and fusions are not shown. Residues count along the entry.
UniProt I6X8D2, whole entry: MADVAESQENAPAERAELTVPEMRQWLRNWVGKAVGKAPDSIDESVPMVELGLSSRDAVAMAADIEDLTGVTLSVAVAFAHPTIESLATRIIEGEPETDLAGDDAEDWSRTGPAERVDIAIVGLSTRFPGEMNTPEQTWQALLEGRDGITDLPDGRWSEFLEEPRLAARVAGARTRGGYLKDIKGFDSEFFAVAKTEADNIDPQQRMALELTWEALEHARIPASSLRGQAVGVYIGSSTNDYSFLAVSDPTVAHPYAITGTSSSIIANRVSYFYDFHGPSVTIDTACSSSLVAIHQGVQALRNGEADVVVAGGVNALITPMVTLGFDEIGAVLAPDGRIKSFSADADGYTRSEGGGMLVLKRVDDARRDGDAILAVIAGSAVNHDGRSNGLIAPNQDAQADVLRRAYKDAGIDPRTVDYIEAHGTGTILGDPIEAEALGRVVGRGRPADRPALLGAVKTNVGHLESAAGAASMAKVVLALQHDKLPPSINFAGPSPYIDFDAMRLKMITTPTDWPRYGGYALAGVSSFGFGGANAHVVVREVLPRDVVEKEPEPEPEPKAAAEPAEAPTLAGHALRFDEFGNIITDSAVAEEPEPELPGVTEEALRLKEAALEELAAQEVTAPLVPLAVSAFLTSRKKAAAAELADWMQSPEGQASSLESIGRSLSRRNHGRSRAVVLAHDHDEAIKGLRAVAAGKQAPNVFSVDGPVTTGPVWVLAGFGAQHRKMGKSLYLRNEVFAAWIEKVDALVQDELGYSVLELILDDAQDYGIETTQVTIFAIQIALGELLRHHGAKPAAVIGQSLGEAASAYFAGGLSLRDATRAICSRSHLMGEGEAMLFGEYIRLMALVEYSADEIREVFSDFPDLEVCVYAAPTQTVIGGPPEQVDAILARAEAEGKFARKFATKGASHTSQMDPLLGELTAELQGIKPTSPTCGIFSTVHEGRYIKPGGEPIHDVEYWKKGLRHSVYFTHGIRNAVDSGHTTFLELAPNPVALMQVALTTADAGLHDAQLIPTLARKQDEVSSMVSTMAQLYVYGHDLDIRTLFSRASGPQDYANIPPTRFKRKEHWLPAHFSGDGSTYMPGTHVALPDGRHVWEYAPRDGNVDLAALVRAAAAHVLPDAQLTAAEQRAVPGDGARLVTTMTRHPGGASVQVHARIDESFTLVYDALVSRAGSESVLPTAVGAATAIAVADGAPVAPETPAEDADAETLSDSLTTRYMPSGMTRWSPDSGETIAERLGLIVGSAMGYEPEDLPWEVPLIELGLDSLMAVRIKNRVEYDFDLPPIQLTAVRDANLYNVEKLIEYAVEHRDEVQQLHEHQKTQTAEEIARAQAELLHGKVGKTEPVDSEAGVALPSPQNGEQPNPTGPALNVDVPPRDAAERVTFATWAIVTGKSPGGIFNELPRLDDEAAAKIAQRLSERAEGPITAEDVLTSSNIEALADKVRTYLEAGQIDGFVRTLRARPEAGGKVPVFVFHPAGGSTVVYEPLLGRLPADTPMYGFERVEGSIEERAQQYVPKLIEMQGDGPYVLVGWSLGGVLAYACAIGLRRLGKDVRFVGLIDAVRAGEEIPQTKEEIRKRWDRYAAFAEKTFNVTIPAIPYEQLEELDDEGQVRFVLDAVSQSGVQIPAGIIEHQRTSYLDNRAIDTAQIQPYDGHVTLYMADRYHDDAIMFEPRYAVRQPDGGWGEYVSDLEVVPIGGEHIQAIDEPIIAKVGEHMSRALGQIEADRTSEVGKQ
UniProt Q8IDJ8, 1-583: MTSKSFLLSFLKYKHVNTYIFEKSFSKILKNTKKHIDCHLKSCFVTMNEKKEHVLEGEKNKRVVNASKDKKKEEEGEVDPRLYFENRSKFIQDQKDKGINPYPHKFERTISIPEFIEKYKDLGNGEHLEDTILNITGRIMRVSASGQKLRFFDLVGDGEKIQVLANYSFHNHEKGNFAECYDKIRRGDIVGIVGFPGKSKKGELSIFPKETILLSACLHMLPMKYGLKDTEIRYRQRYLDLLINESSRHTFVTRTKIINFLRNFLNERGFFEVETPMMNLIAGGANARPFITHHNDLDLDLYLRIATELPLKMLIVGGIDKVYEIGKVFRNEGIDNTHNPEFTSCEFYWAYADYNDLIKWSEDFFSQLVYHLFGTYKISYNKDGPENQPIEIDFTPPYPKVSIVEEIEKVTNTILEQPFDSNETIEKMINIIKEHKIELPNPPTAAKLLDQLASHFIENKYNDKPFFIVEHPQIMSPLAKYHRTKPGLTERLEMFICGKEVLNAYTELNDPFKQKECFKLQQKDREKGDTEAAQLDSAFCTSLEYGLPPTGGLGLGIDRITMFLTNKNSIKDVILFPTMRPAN
UniProt A4I591, 1-473: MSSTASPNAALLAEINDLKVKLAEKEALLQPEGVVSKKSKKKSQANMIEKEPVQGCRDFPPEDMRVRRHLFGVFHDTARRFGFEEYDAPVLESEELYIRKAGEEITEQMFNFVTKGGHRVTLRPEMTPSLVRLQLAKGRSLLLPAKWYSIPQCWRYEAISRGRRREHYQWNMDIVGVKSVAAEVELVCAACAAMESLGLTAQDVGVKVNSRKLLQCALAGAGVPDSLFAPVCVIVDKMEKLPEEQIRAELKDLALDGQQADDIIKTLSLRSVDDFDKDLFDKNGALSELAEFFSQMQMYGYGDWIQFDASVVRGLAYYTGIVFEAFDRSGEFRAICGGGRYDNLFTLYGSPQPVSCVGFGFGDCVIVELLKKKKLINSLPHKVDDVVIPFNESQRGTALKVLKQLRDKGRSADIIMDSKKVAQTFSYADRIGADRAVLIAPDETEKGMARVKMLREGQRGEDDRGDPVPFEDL
UniProt Q4DA54, 1-478: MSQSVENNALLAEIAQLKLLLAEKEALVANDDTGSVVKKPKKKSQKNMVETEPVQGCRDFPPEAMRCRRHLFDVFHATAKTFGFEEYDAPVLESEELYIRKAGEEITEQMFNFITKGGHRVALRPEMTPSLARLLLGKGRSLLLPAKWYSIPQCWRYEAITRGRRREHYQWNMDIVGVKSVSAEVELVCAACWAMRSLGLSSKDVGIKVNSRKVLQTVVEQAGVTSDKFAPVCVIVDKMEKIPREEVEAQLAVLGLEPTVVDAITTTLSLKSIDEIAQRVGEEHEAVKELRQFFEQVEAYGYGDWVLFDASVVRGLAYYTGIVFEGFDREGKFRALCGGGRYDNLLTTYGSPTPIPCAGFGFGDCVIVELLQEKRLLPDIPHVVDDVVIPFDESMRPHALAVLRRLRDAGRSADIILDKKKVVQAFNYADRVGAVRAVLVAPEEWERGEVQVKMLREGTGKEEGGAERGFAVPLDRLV

Measurements from “University of Dundee, Small-Polar-MMV Screening Library” (2021), ChEMBL document CHEMBL3988442.

Values are the deposited “Percent Effect”, in %.
The record does not define 0% and 100%; most values in the screen are far below 50% and negative numbers occur (in some assays of this library far below -100).
This is an unselected part of the compounds tested.
A dash means the value is not listed here; it may have been measured.

Pks13 thioesterase: 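Enzyme assay of the thioesterase domain of polyketide synthase 13; the read-out is not stated. Target: Polyketide synthase Pks13, Mycobacterium tuberculosis (UniProt I6X8D2). Concentration: 30 µM. Higher reads as stronger inhibition (inferred from which compounds were picked for retests). Of about 67,000 compounds tested this way, about 300 (0.46%) reached 50% or more in at least one test.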
PfKRS1: 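Lysine-tRNA ligase, Plasmodium falciparum 3D7 (UniProt Q8IDJ8). Enzyme assay of the cytosolic lysyl-tRNA synthetase in 384-well plates, read by luminescence. Tested at 30 µM. Higher reads as stronger inhibition, judged from the few compounds that gave an IC50. Size under these conditions: about 69,000 compounds, about 49 of them at 50% or above in at least one test.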
LiHisRS: 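Histidine-tRNA ligase, Leishmania infantum (UniProt A4I591). Enzyme assay of histidyl-tRNA synthetase; the read-out is not stated. Compounds at 30 µM. Higher reads as stronger inhibition (inferred: compounds with an IC50 in retests scored well above the rest). The assay is labelled LdHisRS but filed under L. infantum. Of about 69,000 compounds tested this way, about 410 (0.6%) reached 50% or more in at least one test.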
TcHisRS: 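Enzyme assay of histidyl-tRNA synthetase; the read-out is not stated. Target: Histidine-tRNA ligase, Trypanosoma cruzi CL Brener (UniProt Q4DA54). Concentration: 30 µM. Direction is inferred from retests: higher values go with stronger inhibition. About 69,000 compounds were tested under these conditions; 0.045% (about 31) showed 50% or more at least once.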

SMILES	Pks13 thioesterase	PfKRS1	LiHisRS	TcHisRS
CC(C)c1nc(CN2CCC(c3ccnn3CCO)CC2)no1	-16.74	-2.376	-1.786	0.5764
CCCc1cncnc1N1CCC(NCc2ccncc2)CC1	14.63	8.539	14.47	7.389
O=C(COCC1CC1)Nc1cc(S(=O)(=O)NC2CC2)ccc1F	12.18	6.11	11.84	2.463
CC(C)Cn1c(=O)nc2n1C(=O)N(c1ccc(F)cc1)C2	-18.34	0.04849	13.16	1.754
Cc1nc(CC(=O)N2CCC(Nc3cccnn3)CC2)cs1	8.177	0.9096	1.887	0
O=C(c1cc(-c2ccn(CC3CC3)n2)n2ccccc12)N1CCCO1	-8.217	0.72	20	2.299
CN(CC1(O)CCCN(c2ccccn2)C1)C(=O)CC1CCOCC1 (centres unmarked)	-3.171	-0.1293	14	6.742
O=c1[nH]c(-c2ccc(Cl)cc2)nc2c1CCNC2	12.2	-1.208	-5.376	4.712
CN(C)CCOc1ccccc1N1CCN(C(=O)C(C)(C)C#N)CC1	-33.63	2.363	15.49	0.6369
c1ccc(-c2nc(SCc3nnc(C4CC4)o3)n[nH]2)nc1	-12.03	3.014	2.679	8.621
CC(=O)NCC(=O)N1Cc2cc(C#N)ccc2C1c1cnco1 (centres unmarked)	26.93	5.084	10.34	7.595
Cc1nc(C(=O)N2CCC(c3nnc(Cn4ccnc4)n3C)CC2)cs1	-3.643	2.811	18.09	9.045
CCc1nc(CNc2cc(C)nc(-c3cccnc3)n2)cs1	-2.306	-5.835	24.71	11.06
c1cncc(COCc2nnn3c2CN(Cc2ccsc2)CC3)c1	-15.01	3.982	18.06	0.9346
CCCn1[nH]c(CNc2ccccc2)nc1=O	8.453	6.208	-10	-4.969
Cc1cnn(CC(C)NCc2cccc(C#N)c2)c1 (centres unmarked)	-14.48	4.117	12.86	7.447
CS(=O)(=O)NCc1nnc2n1CCN(Cc1nccs1)C2	-24.56	2.553	12	12.75
Cc1nc(-c2nnc[nH]2)sc1C(=O)N(Cc1cccnc1)C1CC1	-14.43	-0.1641	21.28	0
CCOc1ccccc1-n1c(C2CC(=O)N(C)C2)n[nH]c1=O (centres unmarked)	-6.061	2.119	6.024	4.478
O=C(c1cc2c(s1)CCCCC2)N1CCC(c2ncc[nH]2)CC1	-6.391	1.502	11.7	6.061
Cc1nn(C)c(C)c1C1COCCN1C(=O)NC1CC1 (centres unmarked)	-15.49	-3.512	3.101	1.19
CCc1ncc(C(=O)N2CC(Oc3ccccc3Cl)C2)cn1	-9.896	7.019	13.33	-3.571
CC(=O)NC1CCCN(Cc2ccc(OCc3ccccn3)cc2)C1 (centres unmarked)	-45.78	4.146	16.13	5.844
Cc1n[nH]cc1CNC(=O)CCCc1cccs1	1.875	2.424	7.895	0.5587
CC(C)CN1CCc2[nH]cnc2C12CCN(C(=O)c1ccc[nH]1)CC2	-9.81	3.552	9.677	12.64
Cc1ccncc1CN1CCOCC1c1[nH]ncc1C (centres unmarked)	-9.039	-0.03492	6.993	4.52
COc1nc2c(cc1C(=O)N1CCCOC(CN3CCCC3)C1)CCC2 (centres unmarked)	7.328	4.568	27.66	8.671
Cc1csc(CNCC(C)c2nc3ccccc3o2)n1 (centres unmarked)	-6.03	2.951	-2.703	8.333
Cc1noc(C)c1CNC(=O)N(C1CC1)C(C)c1ccco1 (centres unmarked)	-4.952	-1.599	3.226	4.545
CCc1nc(NCCc2c(C)nn(CC)c2C)c2cnn(C)c2n1	-26.98	3.85	10.2	4.103
O=C(C1CC=CC1)N1CCC2(CCN(Cc3cccc(F)c3)CC2)C1	-35.85	-0.1338	36.11	9.453
CCOC(=O)CN1C(=O)CN(S(C)(=O)=O)CCC(OC)c2ccccc21 (centres unmarked)	6.184	4.42	14.29	7.865
Cc1nc(CN(Cc2ccc3c(c2)OCCO3)C2CCCC2)no1	-6.781	1.571	11.5	4.956
COCc1cc(N(Cc2ccsc2)C2CC2)n2ncnc2n1	-	5.158	35.29	3.704
CN(C)c1nc(N)nc(CN2CCC(c3ccccc3)CC2)n1	6.964	1.317	17.65	14.81
Cc1nn(C)c(C)c1C(C)NC(=O)c1cc(CN2CCC(O)CC2)on1 (centres unmarked)	-34.76	-0.5908	12.68	8.28
O=C(CN1CCCCCC1)NCc1ccc2[nH]c(=O)[nH]c2c1	-1.529	-0.9122	14.17	3.865
CCNc1nc(-c2cccnc2)c(-c2ccnc(N3CCOCC3)n2)s1	21.09	3.46	25.71	9.04
CN1CCC(NC(=O)NCc2csc(Br)c2)CC1	-17.22	0.6726	24.62	0.3831
O=C(NCCCc1nnc2ccccn12)c1ccccc1C1CCNC1 (centres unmarked)	-1.231	3.517	13.33	6.667
CCCn1nc(C)c(C(=O)N(C)[C@@H]2CC[C@@H](N3CCCC3)[C@@H]2O)c1C	-1.556	-0.5264	13.04	8.333

4 of the entries, repeated:

{"smiles": "Cc1nn(C)c(C)c1C(C)NC(=O)c1cc(CN2CCC(O)CC2)on1", "stereo": "centres unmarked", "Pks13 thioesterase": -34.76, "PfKRS1": -0.5908, "LiHisRS": 12.68, "TcHisRS": 8.28}
{"smiles": "CCc1nc(CNc2cc(C)nc(-c3cccnc3)n2)cs1", "Pks13 thioesterase": -2.306, "PfKRS1": -5.835, "LiHisRS": 24.71, "TcHisRS": 11.06}
{"smiles": "Cc1cnn(CC(C)NCc2cccc(C#N)c2)c1", "stereo": "centres unmarked", "Pks13 thioesterase": -14.48, "PfKRS1": 4.117, "LiHisRS": 12.86, "TcHisRS": 7.447}
{"smiles": "O=C(COCC1CC1)Nc1cc(S(=O)(=O)NC2CC2)ccc1F", "Pks13 thioesterase": 12.18, "PfKRS1": 6.11, "LiHisRS": 11.84, "TcHisRS": 2.463}